Values from PubChem BioAssay AID1259298 (Sanger Institute, 2017)
In all, the deposit lists 794 reagents; below is an unselected part. Of all reagents, 20 (2.5%) got an active call. 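Calls rest only on the knock-down-alone score; drug synergy scores played no part in them.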 Viability is capped at 1. Further read-outs or replicates are left out here. Not given: the amount of reagent, the time to read-out.

Assay: 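Kinome knock-downs lethal on their own or synergising with anchor drugs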 (primary screen)
Cell system: HT55 human colorectal cancer cell line
Knock-down reagent: siRNA pool against human genes
Conditions: anchor drug BYL719 1 µM, cetuximab 5 µg/ml or trametinib 10 nM, or DMSO vehicle alone
Detection: 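Replicate-averaged viability versus wells of non-targeting pool; knock-down-only robust z-score; per-drug synergy score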
Direction: robust z-score, knock-down alone: higher = more cells remaining; low means essential gene; viability vs control pool, no drug: higher = more viable cells
Units: viability vs control pool, no drug in fraction
Hit rule: 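a gene counts as essential if its knock-down-alone robust z-score falls under -3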
Calls: active = essential (knock-down alone); inactive = no change alone

For TYRO3, the entry reads robust z-score, knock-down alone 0.58; viability vs control pool, no drug 1; inactive. Silencing of CERT1 gave: robust z-score, knock-down alone 0.58; viability vs control pool, no drug 1; inactive. For MAP3K4, the entry reads robust z-score, knock-down alone -0.0599; viability vs control pool, no drug 0.95; inactive. MAP4K2 gave robust z-score, knock-down alone 0.58; viability vs control pool, no drug 1; inactive. After knock-down of THNSL1, the record shows robust z-score, knock-down alone -0.167; viability vs control pool, no drug 0.942; inactive. Silencing of SLK resulted in: robust z-score, knock-down alone 0.58; viability vs control pool, no drug 1; inactive.

For FLT4, the values are robust z-score, knock-down alone 0.58; viability vs control pool, no drug 1; inactive. After knock-down of MSR1, the record shows robust z-score, knock-down alone 0.574; viability vs control pool, no drug 1; inactive. AK7 gave robust z-score, knock-down alone 0.58; viability vs control pool, no drug 1; inactive. Silencing of UCK1 resulted in: robust z-score, knock-down alone 0.58; viability vs control pool, no drug 1; inactive. LIMK2 showed robust z-score, knock-down alone 0.58; viability vs control pool, no drug 1; inactive. PASK showed robust z-score, knock-down alone 0.58; viability vs control pool, no drug 1; inactive.

Knock-down of BRSK1 resulted in: robust z-score, knock-down alone -0.191; viability vs control pool, no drug 0.94; inactive. With knock-down of TAF1L, the record shows robust z-score, knock-down alone 0.58; viability vs control pool, no drug 1; inactive. After knock-down of ACVR2A the results were robust z-score, knock-down alone -0.272; viability vs control pool, no drug 0.933; inactive. Depletion of CSNK1G3 gave: robust z-score, knock-down alone 0.58; viability vs control pool, no drug 1; inactive. RELA showed robust z-score, knock-down alone 0.442; viability vs control pool, no drug 0.989; inactive. TNK2 scored robust z-score, knock-down alone 0.58; viability vs control pool, no drug 1; inactive.

FGFR3 scored robust z-score, knock-down alone -1.44; viability vs control pool, no drug 0.842; inactive.

2 entries from above, set out differently.
| gene | robust z-score, knock-down alone | viability vs control pool, no drug | Call |
| --- | --- | --- | --- |
| LIMK2 | 0.58 | 1 | inactive |
| PASK | 0.58 | 1 | inactive |
